Source: PMC9205938
These are yes or no findings as the source states them, for the method shown. In cells and extracts the contact can be indirect. A yes stands for co-enrichment or nearness to the bait. Other partners may have been found. No binding means not detected with the bait. Tags and fused reporters may be left off the sequences shown.

The chains behind the UniProt entries cited, without tags or fusion partners.
UniProt Q2KHR3: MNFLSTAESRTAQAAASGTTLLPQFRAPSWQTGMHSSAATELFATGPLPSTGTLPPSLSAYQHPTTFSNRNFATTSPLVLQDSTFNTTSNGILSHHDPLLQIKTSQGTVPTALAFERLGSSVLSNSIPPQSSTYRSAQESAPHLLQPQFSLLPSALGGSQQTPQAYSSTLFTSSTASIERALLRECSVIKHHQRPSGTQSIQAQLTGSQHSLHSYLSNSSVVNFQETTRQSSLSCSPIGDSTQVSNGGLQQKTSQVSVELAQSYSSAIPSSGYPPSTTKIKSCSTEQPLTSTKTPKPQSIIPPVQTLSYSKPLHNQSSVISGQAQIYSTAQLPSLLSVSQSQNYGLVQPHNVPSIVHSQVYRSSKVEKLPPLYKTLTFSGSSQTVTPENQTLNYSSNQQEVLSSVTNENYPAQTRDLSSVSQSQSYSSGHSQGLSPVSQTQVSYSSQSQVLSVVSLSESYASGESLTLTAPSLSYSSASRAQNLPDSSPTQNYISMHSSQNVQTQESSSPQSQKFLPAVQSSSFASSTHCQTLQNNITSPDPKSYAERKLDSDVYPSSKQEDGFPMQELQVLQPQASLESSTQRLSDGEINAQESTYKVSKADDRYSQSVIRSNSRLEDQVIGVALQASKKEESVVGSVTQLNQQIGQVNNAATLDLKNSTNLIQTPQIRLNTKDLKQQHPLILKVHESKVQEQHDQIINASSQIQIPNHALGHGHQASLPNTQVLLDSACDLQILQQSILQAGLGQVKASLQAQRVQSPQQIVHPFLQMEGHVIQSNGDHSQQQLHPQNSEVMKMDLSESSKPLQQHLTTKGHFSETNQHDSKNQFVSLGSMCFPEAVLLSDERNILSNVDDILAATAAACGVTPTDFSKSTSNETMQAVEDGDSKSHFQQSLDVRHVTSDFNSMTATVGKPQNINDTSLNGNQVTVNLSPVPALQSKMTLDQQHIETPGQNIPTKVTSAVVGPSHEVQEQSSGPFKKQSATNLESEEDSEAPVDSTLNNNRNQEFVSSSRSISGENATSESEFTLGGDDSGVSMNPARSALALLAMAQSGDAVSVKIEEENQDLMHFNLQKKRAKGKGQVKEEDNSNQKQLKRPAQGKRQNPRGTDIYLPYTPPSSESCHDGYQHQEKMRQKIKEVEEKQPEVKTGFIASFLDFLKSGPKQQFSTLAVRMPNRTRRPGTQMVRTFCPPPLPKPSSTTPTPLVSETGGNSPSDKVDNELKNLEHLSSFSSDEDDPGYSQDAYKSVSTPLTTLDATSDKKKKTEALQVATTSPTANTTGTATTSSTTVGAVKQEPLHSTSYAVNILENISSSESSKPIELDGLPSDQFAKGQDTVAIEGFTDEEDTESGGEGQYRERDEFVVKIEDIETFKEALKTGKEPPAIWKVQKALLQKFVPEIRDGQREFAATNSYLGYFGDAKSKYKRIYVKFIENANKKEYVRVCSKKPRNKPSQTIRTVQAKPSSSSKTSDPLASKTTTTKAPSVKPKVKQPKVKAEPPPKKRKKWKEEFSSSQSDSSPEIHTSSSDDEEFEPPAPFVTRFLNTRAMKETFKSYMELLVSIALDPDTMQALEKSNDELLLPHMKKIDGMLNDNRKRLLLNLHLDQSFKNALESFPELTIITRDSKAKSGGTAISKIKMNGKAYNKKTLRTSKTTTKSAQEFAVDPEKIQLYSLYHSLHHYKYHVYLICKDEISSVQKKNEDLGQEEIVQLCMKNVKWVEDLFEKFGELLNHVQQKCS
UniProt Q06609: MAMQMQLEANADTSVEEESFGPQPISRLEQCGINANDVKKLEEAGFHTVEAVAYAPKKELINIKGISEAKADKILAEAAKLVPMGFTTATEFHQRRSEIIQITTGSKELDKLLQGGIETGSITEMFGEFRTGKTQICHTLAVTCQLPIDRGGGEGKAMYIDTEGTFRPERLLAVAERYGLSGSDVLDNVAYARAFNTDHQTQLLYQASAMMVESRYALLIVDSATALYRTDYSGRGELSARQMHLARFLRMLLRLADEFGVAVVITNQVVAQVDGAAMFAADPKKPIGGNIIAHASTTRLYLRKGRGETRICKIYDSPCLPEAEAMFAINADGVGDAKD
UniProt P51587: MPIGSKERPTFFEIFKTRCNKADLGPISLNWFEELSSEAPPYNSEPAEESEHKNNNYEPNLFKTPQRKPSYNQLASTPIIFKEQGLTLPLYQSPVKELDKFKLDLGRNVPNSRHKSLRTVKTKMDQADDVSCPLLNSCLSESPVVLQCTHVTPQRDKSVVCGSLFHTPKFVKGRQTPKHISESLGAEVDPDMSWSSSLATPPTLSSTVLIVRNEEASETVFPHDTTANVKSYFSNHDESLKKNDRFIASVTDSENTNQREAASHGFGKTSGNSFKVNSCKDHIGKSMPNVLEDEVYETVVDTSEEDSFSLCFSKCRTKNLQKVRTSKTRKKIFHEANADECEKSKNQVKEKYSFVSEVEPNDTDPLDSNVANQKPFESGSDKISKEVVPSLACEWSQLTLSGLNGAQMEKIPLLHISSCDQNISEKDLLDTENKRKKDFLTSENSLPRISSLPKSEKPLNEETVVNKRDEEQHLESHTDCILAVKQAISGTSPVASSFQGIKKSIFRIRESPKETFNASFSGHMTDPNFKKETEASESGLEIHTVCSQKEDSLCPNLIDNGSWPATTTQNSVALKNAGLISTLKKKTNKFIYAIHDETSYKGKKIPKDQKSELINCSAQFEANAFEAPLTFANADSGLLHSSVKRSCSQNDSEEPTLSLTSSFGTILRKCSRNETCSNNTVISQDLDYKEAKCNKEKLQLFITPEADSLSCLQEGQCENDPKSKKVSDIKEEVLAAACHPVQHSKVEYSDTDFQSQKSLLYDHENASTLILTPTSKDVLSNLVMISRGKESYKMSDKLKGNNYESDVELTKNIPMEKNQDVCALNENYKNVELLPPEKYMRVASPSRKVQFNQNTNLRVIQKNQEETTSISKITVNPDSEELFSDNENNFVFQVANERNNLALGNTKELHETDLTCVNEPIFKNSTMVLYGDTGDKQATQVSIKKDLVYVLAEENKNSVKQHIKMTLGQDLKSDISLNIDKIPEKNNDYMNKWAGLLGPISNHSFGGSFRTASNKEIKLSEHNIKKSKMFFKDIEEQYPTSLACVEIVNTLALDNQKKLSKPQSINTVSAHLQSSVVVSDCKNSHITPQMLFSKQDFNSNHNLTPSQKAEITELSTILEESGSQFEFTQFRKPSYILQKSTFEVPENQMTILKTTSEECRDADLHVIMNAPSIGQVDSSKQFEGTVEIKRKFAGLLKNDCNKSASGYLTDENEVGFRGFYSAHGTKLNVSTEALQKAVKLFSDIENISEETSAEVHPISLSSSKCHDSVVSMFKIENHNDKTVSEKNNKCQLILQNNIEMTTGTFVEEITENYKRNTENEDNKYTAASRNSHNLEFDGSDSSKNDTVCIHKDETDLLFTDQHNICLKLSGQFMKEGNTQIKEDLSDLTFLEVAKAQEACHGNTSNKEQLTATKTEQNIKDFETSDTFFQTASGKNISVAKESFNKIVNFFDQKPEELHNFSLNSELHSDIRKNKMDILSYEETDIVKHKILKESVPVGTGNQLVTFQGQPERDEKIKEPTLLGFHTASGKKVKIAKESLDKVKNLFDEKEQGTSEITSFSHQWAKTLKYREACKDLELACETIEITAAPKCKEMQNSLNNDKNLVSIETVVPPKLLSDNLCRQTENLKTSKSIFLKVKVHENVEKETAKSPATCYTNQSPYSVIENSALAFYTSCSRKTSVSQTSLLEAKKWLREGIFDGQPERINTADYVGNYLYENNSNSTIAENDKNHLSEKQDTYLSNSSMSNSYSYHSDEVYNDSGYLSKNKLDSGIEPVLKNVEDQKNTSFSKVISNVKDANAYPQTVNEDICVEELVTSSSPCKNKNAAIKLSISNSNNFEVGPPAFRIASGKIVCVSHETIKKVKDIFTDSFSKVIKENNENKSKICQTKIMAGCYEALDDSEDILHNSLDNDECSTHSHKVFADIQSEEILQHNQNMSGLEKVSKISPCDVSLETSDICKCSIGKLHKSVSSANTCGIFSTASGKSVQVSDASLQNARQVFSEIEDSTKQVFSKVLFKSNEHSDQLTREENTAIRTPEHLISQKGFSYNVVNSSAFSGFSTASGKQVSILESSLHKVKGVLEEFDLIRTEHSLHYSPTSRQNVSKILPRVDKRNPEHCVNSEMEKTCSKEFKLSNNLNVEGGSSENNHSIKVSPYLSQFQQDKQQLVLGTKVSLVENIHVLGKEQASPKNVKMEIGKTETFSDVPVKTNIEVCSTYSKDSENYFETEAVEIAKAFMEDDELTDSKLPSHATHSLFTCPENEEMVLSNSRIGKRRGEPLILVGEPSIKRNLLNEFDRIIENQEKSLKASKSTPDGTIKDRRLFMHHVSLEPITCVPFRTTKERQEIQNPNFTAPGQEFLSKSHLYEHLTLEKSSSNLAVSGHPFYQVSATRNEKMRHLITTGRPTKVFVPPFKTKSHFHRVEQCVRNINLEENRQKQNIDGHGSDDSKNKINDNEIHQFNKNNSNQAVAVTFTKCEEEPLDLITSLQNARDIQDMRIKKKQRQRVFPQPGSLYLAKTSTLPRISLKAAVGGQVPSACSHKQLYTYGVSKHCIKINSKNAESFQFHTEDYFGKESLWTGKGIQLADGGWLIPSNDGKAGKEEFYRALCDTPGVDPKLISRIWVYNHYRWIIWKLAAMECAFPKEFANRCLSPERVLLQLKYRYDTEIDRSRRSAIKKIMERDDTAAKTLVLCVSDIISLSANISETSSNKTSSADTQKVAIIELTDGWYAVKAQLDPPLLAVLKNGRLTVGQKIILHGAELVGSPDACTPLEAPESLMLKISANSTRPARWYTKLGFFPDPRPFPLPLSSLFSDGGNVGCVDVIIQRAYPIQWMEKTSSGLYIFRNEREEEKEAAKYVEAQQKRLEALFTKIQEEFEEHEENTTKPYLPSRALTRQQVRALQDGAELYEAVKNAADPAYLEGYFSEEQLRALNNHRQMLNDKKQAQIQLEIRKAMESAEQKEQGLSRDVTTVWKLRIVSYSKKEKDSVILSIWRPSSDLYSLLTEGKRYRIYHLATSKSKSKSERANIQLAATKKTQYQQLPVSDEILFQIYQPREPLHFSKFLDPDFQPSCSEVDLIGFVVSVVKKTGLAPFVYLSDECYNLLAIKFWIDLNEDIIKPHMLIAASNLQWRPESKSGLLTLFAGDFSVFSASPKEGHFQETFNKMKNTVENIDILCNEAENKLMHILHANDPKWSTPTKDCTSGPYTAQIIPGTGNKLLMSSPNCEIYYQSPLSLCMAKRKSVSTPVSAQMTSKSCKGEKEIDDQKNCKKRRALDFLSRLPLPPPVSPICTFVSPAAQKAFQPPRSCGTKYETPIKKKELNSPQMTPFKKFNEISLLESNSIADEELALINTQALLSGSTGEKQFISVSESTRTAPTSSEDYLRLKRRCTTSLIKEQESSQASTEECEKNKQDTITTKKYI

T1: FLAG-tagged full length ZFP281 (UniProt Q99LI5)
T1 sequence: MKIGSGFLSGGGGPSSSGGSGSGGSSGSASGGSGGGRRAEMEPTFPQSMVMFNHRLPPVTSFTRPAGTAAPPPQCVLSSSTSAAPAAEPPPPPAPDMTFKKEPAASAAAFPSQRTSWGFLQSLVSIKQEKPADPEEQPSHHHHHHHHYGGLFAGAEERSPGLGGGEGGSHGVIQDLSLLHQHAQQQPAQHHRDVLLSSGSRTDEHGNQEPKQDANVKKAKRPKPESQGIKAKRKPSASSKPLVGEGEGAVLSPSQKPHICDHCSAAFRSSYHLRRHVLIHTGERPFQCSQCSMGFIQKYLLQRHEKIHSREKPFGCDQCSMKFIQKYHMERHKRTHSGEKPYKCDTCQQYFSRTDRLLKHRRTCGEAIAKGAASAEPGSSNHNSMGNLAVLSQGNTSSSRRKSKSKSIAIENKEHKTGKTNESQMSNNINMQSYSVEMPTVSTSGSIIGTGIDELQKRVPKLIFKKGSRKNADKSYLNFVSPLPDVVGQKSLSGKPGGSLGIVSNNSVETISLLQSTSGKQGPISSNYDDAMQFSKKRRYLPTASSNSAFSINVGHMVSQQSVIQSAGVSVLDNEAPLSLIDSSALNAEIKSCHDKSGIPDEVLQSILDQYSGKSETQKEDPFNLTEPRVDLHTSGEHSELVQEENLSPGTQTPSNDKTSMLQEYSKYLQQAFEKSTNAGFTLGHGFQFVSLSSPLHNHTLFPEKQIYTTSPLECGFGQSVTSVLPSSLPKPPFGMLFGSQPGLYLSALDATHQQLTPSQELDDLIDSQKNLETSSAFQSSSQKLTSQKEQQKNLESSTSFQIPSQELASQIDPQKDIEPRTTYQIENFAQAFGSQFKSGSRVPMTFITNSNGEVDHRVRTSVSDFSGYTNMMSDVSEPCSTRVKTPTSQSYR


The molecules below were run against T1, FLAG-tagged full length ZFP281 (assay: affinity purification with mass spectrometry; FLAG-ZFP281 induced in 293 Flp-in-TRex cells; nuclear extract at 300 mM NaCl, FLAG-affinity purification in the presence of benzonase; SDS-PAGE, silver staining, mass spectrometry).

binding	Molecule
binds	QSER1 in 293 cells (from UniProt Q2KHR3 1-1735)
no binding	homologous recombinase RAD51 in 293 cells (from UniProt Q06609 1-339)
binds	BRCA2 in 293 cells (from UniProt P51587 1-3418)
binds	EMSY in 293 cells (protein, UniProt Q7Z589 1-1322) MPVVWPTLLDLSRDECKRILRKLELEAYAGVISALRAQGDLTKEKKDLLGELSKVLSISTERHRAEVRRAVNDERLTTIAHNMSGPNSSSEWSIEGRRLVPLMPRLVPQTAFTVTANAVANAAIQHNASLPVPAETGSKEVVCYSYTSTTSTPTSTPVPSGSIATVKSPRPASPASNVVVLPSGSTVYVKSVSCSDEDEKPRKRRRTNSSSSSPVVLKEVPKAVVPVSKTITVPVSGSPKMSNIMQSIANSLPPHMSPVKITFTKPSTQTTNTTTQKVIIVTTSPSSTFVPNILSKSHNYAAVTKLVPTSVIASTTQKPPVVITASQSSLVSNSSSGSSSSTPSPIPNTVAVTAVVSSTPSVVMSTVAQGVSTSAIKMASTRLPSPKSLVSAPTQILAQFPKQHQQSPKQQLYQVQQQTQQQVAQPSPVSHQQQPQQSPLPPGIKPTIQIKQESGVKIITQQVQPSKILPKPVTATLPTSSNSPIMVVSSNGAIMTTKLVTTPTGTQATYTRPTVSPSIGRMAATPGAATYVKTTSGSIITVVPKSLATLGGKIISSNIVSGTTTKITTIPMTSKPNVIVVQKTTGKGTTIQGLPGKNVVTTLLNAGGEKTIQTVPTGAKPAILTATRPITKMIVTQPKGIGSTVQPAAKIIPTKIVYGQQGKTQVLIKPKPVTFQATVVSEQTRQLVTETLQQASRVAEAGNSSIQEGKEEPQNYTDSSSSSTESSQSSQDSQPVVHVIASRRQDWSEHEIAMETSPTIIYQDVSSESQSATSTIKALLELQQTTVKEKLESKPRQPTIDLSQMAVPIQMTQEKRHSPESPSIAVVESELVAEYITTERTDEGTEVAFPLLVSHRSQPQQPSQPQRTLLQHVAQSQTATQTSVVVKSIPASSPGAITHIMQQALSSHTAFTKHSEELGTEEGEVEEMDTLDPQTGLFYRSALTQSQSAKQQKLSQPPLEQTQLQVKTLQCFQTKQKQTIHLQADQLQHKLPQMPQLSIRHQKLTPLQQEQAQPKPDVQHTQHPMVAKDRQLPTLMAQPPQTVVQVLAVKTTQQLPKLQQAPNQPKIYVQPQTPQSQMSLPASSEKQTASQVEQPIITQGSSVTKITFEGRQPPTVTKITGGSSVPKLTSPVTSISPIQASEKTAVSDILKMSLMEAQIDTNVEHMIVDPPKKALATSMLTGEAGSLPSTHMVVAGMANSTPQQQKCRESCSSPSTVGSSLTTRKIDPPAVPATGQFMRIQNVGQKKAEESPAEIIIQAIPQYAIPCHSSSNVVVEPSGLLELNNFTSQQLDDEETAMEQDIDSSTEDGTEPSPSQSSAERS
